Results are given in words; binding and its absence hold for the method and conditions named. Binding can be weak; no strength is given. Sequences can lack the tags named with a protein.

This test addresses T1, his6-R (Nyv1), full-length R-SNARE with a 6his-tag on its N-terminus (Saccharomyces cerevisiae) (UniProt Q12255).
T1 sequence: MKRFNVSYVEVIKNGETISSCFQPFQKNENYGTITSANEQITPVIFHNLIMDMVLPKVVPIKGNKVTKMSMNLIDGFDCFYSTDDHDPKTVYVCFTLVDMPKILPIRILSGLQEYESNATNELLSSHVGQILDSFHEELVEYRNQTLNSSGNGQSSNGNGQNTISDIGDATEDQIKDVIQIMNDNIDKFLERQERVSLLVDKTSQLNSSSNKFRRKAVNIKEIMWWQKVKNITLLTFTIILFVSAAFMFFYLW
Briefly: pull-down; his6-R held on nickel-NTA agarose; 2.5 µM of each SNARE (R and three Q-SNAREs mixed), Buffer 151 (20 mM HEPES-NaOH, pH 7.4, 150 mM NaCl, 10% glycerol, 1% ß-OG, 20 mM imidazole), 4°C, 2 hr then 1 hr on beads; immunoblot; both purified.

On to “Qc3Δ, Qc (Vam7) ending at the SNARE domain layer +3 (Saccharomyces cerevisiae) (domain or fragment)”, for which the binding result is on record as “binds”.
